The other results are listed elsewhere or left out. These are further read-outs of the screen, such as a control signal, another cell line or another target. No call is given for them. The list favours compounds with an active or inconclusive main result. Potencies come from curve fits of mixed quality, noted in brackets.

This assay can be described thus: qHTS Assay for Lipid Storage Modulators in Drosophila S3 Cells.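 On cell number change: cells counted by Cell Tracker Red CMTPX staining in the red channel.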 The following applies: BODIPY lipid droplet fluorescence, 18-24 h; for cell number change: measured here: cell count max response, cells fed with added oleic acid. The essentials:
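Laser-scanning cytometry quantifies lipid droplet accumulation (500–530 nm total intensity; droplet/cell object ratio) in oleic acid-fed (400 uM added) Drosophila S3 cells treated with a concentration series. 20 uM Triacsin C defined 100% inhibition.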
A general note: Quantitative high-throughput screening tests each substance at several concentrations.

The mark [1] stands for this setting: measured here: lipid fluorescence (Fed channel) AC50, cells fed with added oleic acid.
Where [2] appears, read: measured here: cell number channel AC50, cells fed with added oleic acid.

Turning to `CNC(=O)Nc1ccc(Cn2cc(C(F)(F)F)ccc2=O)cc1`, the cell number change is 19.1%.
For orientation: AC50 means the midpoint of the concentration-response curve, whichever way the signal moves. Take `Cc1cc(C)nc(Nc2n[nH]c(-c3ccccc3Br)n2)n1`: the cell number change was -8.92%. Further, under setting [1], the AC50 was 0.731 µM [rising, full curve].
In the case of `Cc1ccccc1CNC(=O)Cn1ccc2cc(S(=O)(=O)N3CCCCCC3)ccc21`, the cell number change was -12.6%. Further, under setting [1], the AC50 is 6.51 µM [rising, single point].
In the case of `O=C(NCc1ccccc1Cl)C1CCN(S(=O)(=O)c2ccc(F)cc2)CC1`, the cell number change is -3.22%. For the same compound, the half-maximal activity concentration (AC50) under setting [2] was 0.82 µM [falling, full curve, poor fit].
For the compound `O=C(Cn1cnc2ccccc2c1=O)NC1CCCc2ccccc21` (stereo not drawn), the cell number change was found to be 22.2%. In addition, the AC50 under setting [1] was 18.4 µM [rising, single point].
With `CN(Cc1ccccc1)C(=O)C1CCN(S(=O)(=O)c2cccc3nsnc23)CC1`, the cell number change was -22.2%. For the same compound, under setting [1], the AC50 is 6.51 µM [falling, single point].
Consider `Cc1ccc(S(=O)(=O)N2CCC(=O)N(C(COCc3cccc(Cl)c3)Cc3ccccc3)CC2)cc1` (stereo not drawn), for which the cell number change is -13%. Further, the concentration at half-maximal activity (AC50) under setting [1] is 2.91 µM [rising, single point].
Take `CC(C)CN(C(=O)COC(=O)c1ccccc1NCc1ccco1)c1c(N)n(Cc2ccccc2)c(=O)[nH]c1=O`: the AC50 under setting [2] was 3.66 µM [rising, single point].
Turning to `CCOc1ccc(N(CC(=O)NC2CCCC2)S(=O)(=O)c2ccccc2)cc1`, under setting [1], the half-maximal activity concentration (AC50) was 6.51 µM [falling, single point].
On to `O=C(CN(C(=O)CNS(=O)(=O)c1ccccc1)c1ccc(F)cc1)NCc1ccco1`, for which the cell number change was -17.1%.
On to `CC1CC(C)CN(C(=O)c2cccc(S(=O)(=O)N(C)c3ccccc3)c2)C1` (stereo not drawn), for which the cell number change was 35%. Besides, the half-maximal activity concentration (AC50) under setting [2] was 4.11 µM [rising, full curve].
Turning to `COc1ccc(CCNC(=O)c2cccc(NC(=O)CC3SC(N4CCCCC4)=NC3=O)c2)cc1OC` (stereo not drawn), the AC50 under setting [1] was 1.58 µM [rising, partial curve].
Turning to `O=C(NC1CCS(=O)(=O)C1)C1CCCCN1S(=O)(=O)c1ccc(Cl)cc1` (stereo not drawn), the cell number change turned out to be 2.99%. Further, the concentration at half-maximal activity (AC50) under setting [2] was 0.291 µM [rising, full curve]. In addition, under setting [1], the concentration at half-maximal activity (AC50) was 29.1 µM [rising, single point].
As for `C/C(CCC(=O)OC[C@H]1O[C@H](C#Cc2ccccc2)C=C[C@@H]1Oc1ccc(C)cc1)=N\O[C@@H](C)CN1CCCCc2nc(C)c(C)cc21`, the cell number change came out at 14.1%. Besides, the AC50 under setting [1] is 6.51 µM [rising, partial curve, poor fit].
As for `CS(=O)(=O)N(CC(=O)NCc1ccc2c(c1)OCO2)c1cccc(Cl)c1`, the cell number change was 19.6%. In addition, the AC50 under setting [1] was 20.6 µM [rising, partial curve, poor fit].
Regarding `COc1cccc(CC(=O)OCC(=O)NC(C)c2ccc(F)cc2)c1` (stereo not drawn), the cell number change was -0.777%. Also, the AC50 under setting [1] is 20.6 µM [falling, single point].
As to `COc1ccc(C(=O)NCCS(=O)(=O)N2CCc3ccccc3C2)c(OC)c1`, the cell number change is -14.8%.
Consider `Cc1c(Nc2scc(-c3ccccc3)[n+]2-c2ccccc2)c(=O)n(-c2ccccc2)n1C`, for which the AC50 under setting [1] is 0.00461 µM [falling, full curve, poor fit].
With `CCc1cccc(CC)c1NC(=O)COC(=O)C1(C)CC1(Cl)Cl` (stereo not drawn), the half-maximal activity concentration (AC50) reads like this: under setting [2], 6.51 µM [falling, single point]; under setting [1], 2.59 µM [falling, partial curve, poor fit].
Consider `COc1cc(Br)cc(Br)c1OCC(=O)N/N=C/c1c(C)n(C)n(-c2ccccc2)c1=O`, for which the cell number change is -41.4%. Further, the AC50 under setting [2] was 1.03 µM [falling, full curve, poor fit].
Regarding `Cc1cc(C)cc(NC(=O)c2ccc(Cn3nc(C)c(Cl)c3C)o2)c1`, the cell number change was -34.5%. In addition, the half-maximal activity concentration (AC50) under setting [2] is 29.1 µM [falling, single point]. Also, the AC50 under setting [1] is 29.1 µM [falling, single point].
Regarding `COc1ccccc1OCCNC(=O)c1cccc(S(=O)(=O)N2CCN(Cc3ccccc3)CC2)c1`, the cell number change is -3.5%. The half-maximal activity concentration (AC50) under setting [1] was 29.1 µM [falling, single point].
`O=C(Cc1c(Cl)cccc1Cl)NCCc1ccc(Cl)cc1`: the cell number change is -3.71%. Besides, the AC50 under setting [2] was 6.51 µM [falling, single point]. For the same compound, the half-maximal activity concentration (AC50) under setting [1] was 3.66 µM [rising, single point].
Take `CCOC(=O)C1C(=O)CC(C)(O)C(C(=O)OCC)C1c1ccc(C)s1` (stereo not drawn): the cell number change amounted to 2.18%. Moreover, the half-maximal activity concentration (AC50) under setting [1] is 23.1 µM [rising, single point].
For `Cn1c(COc2ccccc2)nc2ccccc21`, the cell number change was determined as 11.3%.
Still for that read-out and setting: the result for `O=C(c1ccccc1)c1ccccc1C(=O)N1CCCC1` reads -8.67%.
In the case of `CC1CN(S(=O)(=O)N2CCOCC2)CCN1S(=O)(=O)N1CCOCC1` (stereo not drawn), the cell number change was -47.7%. For the same compound, under setting [1], the concentration at half-maximal activity (AC50) is 29.1 µM [falling, single point].
`Cc1ccc(C)c(NC(=O)CCc2ccc(S(=O)(=O)NC3CCCCC3)cc2)c1`: the cell number change came to 29.4%.
Consider `OCCN1CCN(CC(O)COc2ccc(Cl)cc2)CC1` (stereo not drawn), for which the cell number change was -23.3%.
The same measure, in the same setting: the result for `CCCN(CCC)CCCNC(=O)C1CCN(S(=O)(=O)c2cccc3nsnc23)CC1` reads 4.78%.
Consider `O=C1NC(Cc2ccccc2)C(=O)N1Cc1cc([N+](=O)[O-])cc2c1OCOC2` (stereo not drawn), for which the cell number change amounted to 22.2%. Besides, the concentration at half-maximal activity (AC50) under setting [2] was 0.517 µM [rising, full curve, poor fit].
On to `O=C(CCc1ccc(S(=O)(=O)NCCc2ccccc2)cc1)NCc1ccc2c(c1)OCO2`, for which the AC50 under setting [1] was 8.2 µM [rising, partial curve].
In the case of `O=C(CCc1ccccc1)Nc1nc2ccc(S(=O)(=O)N3CCOCC3)cc2s1`, the cell number change is 80.9%. The AC50 under setting [2] is 20.6 µM [rising, single point].
`CCN(CC)S(=O)(=O)c1ccc(OCC(=O)NC(=O)Cc2ccccc2)c([N+](=O)[O-])c1`: the cell number change was -16.4%. Also, the AC50 under setting [1] is 32.6 µM [falling, partial curve, poor fit].
As to `COc1ccccc1NC(=O)NNC(=O)c1ccc2c(c1)NC(=O)C(C)(C)O2`, under setting [1], the AC50 was 0.116 µM [rising, single point].
For the compound `COc1ccc(CCCc2nnc(SCc3nc4ccccc4c(=O)[nH]3)n2C)cc1C`, the cell number change is 8.7%.
For the compound `Cc1cc(C)c(S(N)(=O)=O)c(C)c1-n1cnnn1`, the cell number change is -2.97%. For the same compound, under setting [1], the concentration at half-maximal activity (AC50) was 0.00517 µM [falling, full curve, poor fit].
On to `Cc1ccc(C(=O)Nc2nc(C)c(C)s2)o1`, for which the cell number change came out at 100%. Further, under setting [2], the AC50 was 18.4 µM [rising, single point]. Also, under setting [1], the half-maximal activity concentration (AC50) was 23.1 µM [rising, single point].
In the case of `C/C(CC(=O)NCc1ccc(F)cc1)=N\NC(N)=S`, the cell number change is -11.9%. In addition, the concentration at half-maximal activity (AC50) under setting [2] was 0.164 µM [falling, full curve, poor fit]. Moreover, under setting [1], the half-maximal activity concentration (AC50) was 3.26 µM [falling, full curve].

The record behind these values is PubChem BioAssay AID2685 (National Center for Advancing Translational Sciences (NCATS), 2010).
